For 1 substance, binding results are on record in PMC8138007.

Chains of the proteins cited; added tags and fusions are not shown.
UniProt P14618: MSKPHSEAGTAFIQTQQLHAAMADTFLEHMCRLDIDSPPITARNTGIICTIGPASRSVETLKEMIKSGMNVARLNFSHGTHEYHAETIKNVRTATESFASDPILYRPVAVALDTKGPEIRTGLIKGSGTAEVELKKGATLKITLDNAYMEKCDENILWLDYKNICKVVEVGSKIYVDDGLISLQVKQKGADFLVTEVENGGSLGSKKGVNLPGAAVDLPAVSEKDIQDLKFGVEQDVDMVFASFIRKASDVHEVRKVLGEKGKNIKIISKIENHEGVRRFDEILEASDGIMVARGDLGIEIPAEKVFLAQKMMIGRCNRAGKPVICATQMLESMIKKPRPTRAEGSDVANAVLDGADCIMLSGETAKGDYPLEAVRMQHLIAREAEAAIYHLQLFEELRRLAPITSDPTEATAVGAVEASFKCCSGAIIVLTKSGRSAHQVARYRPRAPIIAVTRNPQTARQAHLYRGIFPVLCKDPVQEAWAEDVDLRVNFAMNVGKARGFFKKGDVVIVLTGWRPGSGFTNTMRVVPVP

This experiment addresses T1, Testes-specific protease 50 (TSP50), endogenous (human (endogenous in Huh7 and Bel7402)) (UniProt Q9UI38).
T1 sequence: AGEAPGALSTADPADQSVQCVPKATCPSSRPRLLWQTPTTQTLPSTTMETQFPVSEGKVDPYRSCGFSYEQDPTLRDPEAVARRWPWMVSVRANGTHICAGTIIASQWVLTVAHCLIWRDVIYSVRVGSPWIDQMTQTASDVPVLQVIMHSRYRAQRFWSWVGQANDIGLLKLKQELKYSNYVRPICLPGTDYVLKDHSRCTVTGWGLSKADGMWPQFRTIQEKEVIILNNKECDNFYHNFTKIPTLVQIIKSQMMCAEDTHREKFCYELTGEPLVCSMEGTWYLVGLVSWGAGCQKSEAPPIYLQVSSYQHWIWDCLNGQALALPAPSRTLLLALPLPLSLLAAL
In words: affinity purification with mass spectrometry; proteins binding to endogenous TSP50 in Huh7 cells identified by LC-MS/MS; 50 kDa gel bands excised after SDS-PAGE; non-specific proteins removed.

No constants are given. Whether binding was seen depends on the method and setting. Binding seen in cells or lysates may run through a third protein. Here binding means that the protein was enriched with, or labelled near, the bait; the list need not be complete.

As to “Pyruvate kinase M2 isoform (PKM2), endogenous (from UniProt P14618 1-531) (enzyme)”, the binding entry is “binds”.
